Results of single-concentration screens

By UniProt entry, the sequences of proteins in these tests, tags left out. Residues count along the entry.
UniProt Q4DA54, 1-478: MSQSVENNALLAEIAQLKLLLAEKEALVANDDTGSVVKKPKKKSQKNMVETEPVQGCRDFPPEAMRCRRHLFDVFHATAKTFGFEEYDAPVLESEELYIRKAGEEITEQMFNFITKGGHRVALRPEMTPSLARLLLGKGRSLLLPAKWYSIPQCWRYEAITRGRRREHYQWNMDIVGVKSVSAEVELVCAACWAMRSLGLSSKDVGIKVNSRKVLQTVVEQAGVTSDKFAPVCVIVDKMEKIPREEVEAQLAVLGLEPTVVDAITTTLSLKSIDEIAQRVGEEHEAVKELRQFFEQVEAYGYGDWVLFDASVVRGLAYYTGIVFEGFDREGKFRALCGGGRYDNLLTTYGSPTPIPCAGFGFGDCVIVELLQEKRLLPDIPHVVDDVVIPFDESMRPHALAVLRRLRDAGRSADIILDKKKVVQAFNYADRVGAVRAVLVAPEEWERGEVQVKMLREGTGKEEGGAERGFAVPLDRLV
UniProt A4I591, 1-473: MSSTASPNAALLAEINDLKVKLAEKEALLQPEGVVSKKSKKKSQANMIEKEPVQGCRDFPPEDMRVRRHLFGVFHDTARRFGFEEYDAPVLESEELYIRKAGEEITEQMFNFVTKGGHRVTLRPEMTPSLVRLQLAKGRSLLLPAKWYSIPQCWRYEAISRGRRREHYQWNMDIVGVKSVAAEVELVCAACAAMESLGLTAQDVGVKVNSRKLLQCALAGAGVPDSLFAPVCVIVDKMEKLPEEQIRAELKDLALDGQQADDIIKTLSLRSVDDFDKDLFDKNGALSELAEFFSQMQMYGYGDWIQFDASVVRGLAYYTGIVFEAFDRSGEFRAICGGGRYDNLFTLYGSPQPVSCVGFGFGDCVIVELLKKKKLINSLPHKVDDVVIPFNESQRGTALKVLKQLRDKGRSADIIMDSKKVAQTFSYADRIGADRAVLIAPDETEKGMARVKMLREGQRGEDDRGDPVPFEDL
UniProt P9WPC5, whole entry: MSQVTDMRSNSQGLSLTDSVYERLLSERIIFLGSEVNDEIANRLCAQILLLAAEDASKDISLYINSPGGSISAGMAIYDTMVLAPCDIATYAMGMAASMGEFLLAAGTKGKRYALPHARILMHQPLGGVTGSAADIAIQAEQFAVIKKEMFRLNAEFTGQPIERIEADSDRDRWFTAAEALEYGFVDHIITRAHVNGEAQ
UniProt P9WPC3, whole entry partner: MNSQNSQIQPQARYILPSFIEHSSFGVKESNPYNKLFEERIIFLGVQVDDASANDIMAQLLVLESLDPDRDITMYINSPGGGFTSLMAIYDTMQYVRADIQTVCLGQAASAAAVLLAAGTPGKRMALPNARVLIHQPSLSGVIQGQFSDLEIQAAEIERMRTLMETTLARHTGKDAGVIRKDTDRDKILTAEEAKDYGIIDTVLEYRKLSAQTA

The filed quantity is “Percent Effect” (%).
The controls that fix the scale are not given in the record; negative values are as filed.
The compounds are a random part of those screened.
A dash means the value is not listed here; it may have been measured.

Toxoplasma: 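Assay of Toxoplasma gondii numbers, read through their beta-galactosidase reporter with a colour substrate. Compounds at 10 µM. The record gives no direction; the compounds picked for IC50 retests had high values, so higher reads as fewer parasites. Size under these conditions: about 67,000 compounds, about 260 of them at 50% or above in at least one test.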
Leishmania in macrophages: 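Cell assay of Leishmania donovani living inside macrophages; the read-out is not stated. Compounds at 30 µM. The record gives no direction; compounds that gave an IC50 in retests scored well above the rest, so higher reads as stronger inhibition. Of about 69,000 compounds tested this way, about 1,000 (1.5%) reached 50% or more in at least one test.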
TcHisRS: 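Enzyme assay of histidyl-tRNA synthetase; the read-out is not stated. Target: Histidine-tRNA ligase, Trypanosoma cruzi CL Brener (UniProt Q4DA54). Concentration: 30 µM. Higher reads as stronger inhibition (inferred: compounds with an IC50 in retests scored well above the rest). About 69,000 compounds were tested under these conditions; 0.045% (about 31) showed 50% or more at least once.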
LiHisRS: 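Histidine-tRNA ligase, Leishmania infantum (UniProt A4I591). Enzyme assay of histidyl-tRNA synthetase; the read-out is not stated. Tested at 30 µM. The record gives no direction; compounds that gave an IC50 in retests scored well above the rest, so higher reads as stronger inhibition. The assay is labelled LdHisRS but filed under L. infantum. Size under these conditions: about 69,000 compounds, about 410 of them at 50% or above in at least one test.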
ClpP1P2: 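Protease assay of ClpP1P2, read by the AMC dye that it sets free. Target: ClpP1P2, Mycobacterium tuberculosis (UniProt P9WPC5 and UniProt P9WPC3). Tested at 50 µM. Higher reads as stronger inhibition, judged from the few compounds that gave an IC50. Most other retested compounds had strongly negative values. Size under these conditions: about 69,000 compounds, about 10 of them at 50% or above in at least one test.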
T. brucei: 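Whole-parasite assay of Trypanosoma brucei over 72 hours; the read-out is not stated. Compounds at 30 µM. Higher reads as stronger inhibition (inferred: compounds with an IC50 in retests scored well above the rest). Values scatter widely below zero; nearly all retest evidence comes from the higher of the two concentrations used. Of about 64,000 compounds tested this way, about 940 (1.5%) reached 50% or more in at least one test.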

compound | Toxoplasma | Leishmania in macrophages | TcHisRS | LiHisRS | ClpP1P2 | T. brucei
COC(=O)C1CN(CC(=O)Nc2ccccc2Cl)c2ccccc21 (centres undefined) | -10.36 | 3.915 | -9.574 | -6.25 | -2.128 | -22.7
O=C(Cc1ccsc1)N1CCCC2(COCCN(CC3CC3)C2)C1 (centres undefined) | - | - | 9.783 | 11.84 | -12.16 | -
Cc1c(C)n2c(SCC(=O)N3CCC(C)CC3)nnc2[nH]c1=O | 4.935 | 0.6085 | 7.772 | 21.51 | 18.04 | -3.75
c1csc(N2CCN(c3nccn4cnnc34)CC2)n1 | -8.975 | 4.844 | 7.182 | 16.87 | -3.096 | 11.46
O=C(NCCC(=O)N1CCCc2ccccc21)c1cc(F)cc(F)c1 | -3.865 | 19.93 | 6.122 | 13.27 | -36.19 | -
COc1cc(C)nc(N2CCN(C(=O)COCC3CC3)CC2)n1 | 1.343 | 22.09 | 1.765 | 14.68 | -16.72 | -
Cc1ccc(F)c(OC2(C(=O)O)CCN(C(=O)N3CCCC3)CC2)c1 | -1.396 | 3.141 | 2.439 | 4.808 | -15.05 | -35.8
Cc1cccc(CN2C[C@@H](C)[C@@]3(CCN(CC(=O)N(C)C)C3=O)C2)c1 | - | - | 0 | 11.54 | -5.176 | -
Cc1ncsc1-c1nnc(C2CCN(CC3CCCCC3)CC2)o1 | -0.06812 | 19.63 | 2.151 | 2.857 | 14.64 | -17.55
Cn1cncc1-c1nnc([C@H]2CCN(Cc3ncc[nH]3)C2)o1 | -0.7189 | -2.612 | -3.483 | 18.92 | -21.53 | -1.49
CCn1c(C2CCCNC2)nn(CCn2cncn2)c1=O (centres undefined) | -2.037 | 44.56 | 8.04 | 24.71 | 0.7163 | -7.968
Cc1cc(C)nc(CCNC(=O)C(c2ccc(F)cc2)N(C)C)n1 (centres undefined) | 18.26 | -12.57 | -18.18 | -3.81 | 16.14 | -8.374
CCC(=O)N1CCCC(c2nc(-c3cccnn3)no2)C1 (centres undefined) | -0.2283 | -10.8 | 5.263 | 2.5 | -6.53 | -15.73
O=C(O)C(F)(F)F.O=C(O)C(F)(F)F.[H][C@@]12CCN(Cc3cccc(C)n3)[C@@]1([H])CCN2C(=O)Cc1ccsc1 | 14.35 | 11.44 | - | - | - | -2.607
Cn1cc(CCNC(=O)N2CCCC(c3nncn3C)C2)cn1 (centres undefined) | -1.291 | -15.79 | 5.714 | 7.692 | -10.51 | -
Nc1ncccc1CN1C[C@H]2OC(=O)N(Cc3ccccn3)[C@H]2C1 | - | - | 7.065 | 2.667 | -14 | -
CN(CC(=O)N1CCOCC(CO)C1)Cc1ccc(F)cc1 (centres undefined) | 2.056 | 26.9 | 2.146 | 8.197 | -1.84 | -46.16
COCCN1C(=O)CCC12CCCN(Cc1nccs1)CC2 (centres undefined) | - | - | 8.163 | 15 | 7.059 | -
OCCn1ncc2c1CN(CC1CCOc3ccccc3C1)C2 (centres undefined) | -0.4607 | 33.01 | 6.358 | 12 | 2.582 | 2.042
Cc1ncoc1C(=O)N1CCOC(CCCC(C)C)C1 (centres undefined) | -9.87 | -28.53 | -3.627 | 0 | -9.014 | -7.968
O=C(O)c1c(-c2cncnc2)ncc2c1CCN(CC1CCOC1)C2 (centres undefined) | - | - | 6.533 | -29.7 | -0.6493 | -
Cn1cc(-c2ncnc3c2CCN(C(=O)c2cscn2)CC3)cn1 | 29.09 | 16.3 | -1.111 | 7.547 | 3.767 | -39.31
CC(C)CC(=O)N1CCC(Nc2nc(O)cc(-c3ccsc3)n2)CC1 | 11.81 | -35.94 | -1.429 | 10.74 | -0.01775 | 4.079
O=C(CCc1ccncc1)N1CCCC(N2CCNC2=O)C1 (centres undefined) | -9.723 | 18.77 | 2.439 | 13.25 | -4.135 | 2.302
NC(=O)c1ccc(NC(=O)CCN2CCCC(N3CCCC3)C2)cc1 (centres undefined) | -0.2302 | 8.961 | -2.674 | 17.31 | -5.264 | 32.23
CN1CCC2(CC1)C(=O)N(c1cccnc1)c1ccc(F)cc12.Cl | 20.41 | -0.1427 | - | - | - | -
O=S1(=O)NC2(CCCN(Cc3ccc(F)cc3)C2)COc2ccccc21 (centres undefined) | 13.05 | -26.58 | 6.509 | 8.276 | 9.452 | -
CN1CCCN(c2cnn(Cc3ccc(C(C)(C)C)cc3)c(=O)c2)CC1 | 12.48 | -86.95 | 9.639 | 32 | -10.5 | -10.38

Repeated from the top, 2 entries:

COC(=O)C1CN(CC(=O)Nc2ccccc2Cl)c2ccccc21 (centres undefined) gave Toxoplasma: -10.36%; Leishmania in macrophages: 3.915%; TcHisRS: -9.574%; LiHisRS: -6.25%; ClpP1P2: -2.128%; T. brucei: -22.7%.
O=C(Cc1ccsc1)N1CCCC2(COCCN(CC3CC3)C2)C1 (centres undefined) gave TcHisRS: 9.783%; LiHisRS: 11.84%; ClpP1P2: -12.16%.

Source: ChEMBL document CHEMBL3988442, “University of Dundee, Small-Polar-MMV Screening Library” (2021).